Results published in paper PMC4941295.
Results are given in words; binding and its absence hold for the method and conditions named. In cells and extracts the contact can be indirect. Some binding calls cover weakened binding; strength is not graded here. For some assays here: Where a sequence is shown, tags or fusion partners need not be part of it. Blank lines part the entries; values can stand above or below the binder they belong to.

Sequences of proteins named here, by UniProt entry; tags and fusion partners are left off.
UniProt Q9WV60: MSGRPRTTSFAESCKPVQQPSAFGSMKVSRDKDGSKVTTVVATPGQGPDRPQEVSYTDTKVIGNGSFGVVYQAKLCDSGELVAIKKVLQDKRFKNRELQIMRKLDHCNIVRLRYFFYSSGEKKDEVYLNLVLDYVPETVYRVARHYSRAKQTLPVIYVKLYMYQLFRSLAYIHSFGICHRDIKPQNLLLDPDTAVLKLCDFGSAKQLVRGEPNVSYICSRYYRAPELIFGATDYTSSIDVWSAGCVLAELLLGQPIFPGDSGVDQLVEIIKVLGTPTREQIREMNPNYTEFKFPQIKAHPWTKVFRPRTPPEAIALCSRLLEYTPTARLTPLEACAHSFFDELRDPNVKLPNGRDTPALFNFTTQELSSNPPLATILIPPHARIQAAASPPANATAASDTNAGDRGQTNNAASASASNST
UniProt P49841: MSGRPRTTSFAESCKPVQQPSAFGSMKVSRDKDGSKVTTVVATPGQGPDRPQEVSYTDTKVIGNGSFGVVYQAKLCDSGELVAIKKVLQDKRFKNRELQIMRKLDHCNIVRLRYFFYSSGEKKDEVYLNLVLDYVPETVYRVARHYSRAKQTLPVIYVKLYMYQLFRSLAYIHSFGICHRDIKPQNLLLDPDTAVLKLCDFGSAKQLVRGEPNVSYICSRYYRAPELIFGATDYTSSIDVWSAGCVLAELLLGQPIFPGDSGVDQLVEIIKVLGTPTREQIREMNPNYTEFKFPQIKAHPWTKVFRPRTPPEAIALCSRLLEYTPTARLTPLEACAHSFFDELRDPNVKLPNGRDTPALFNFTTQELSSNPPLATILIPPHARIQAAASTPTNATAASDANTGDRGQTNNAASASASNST

What was measured:
[1] = biological target: GSK-3β, endogenous (mouse (endogenous in MC38 and CT26)) (UniProt Q9WV60); assay: co-IP; endogenous proteins; lysates from MC38 and CT26 immunoprecipitated with 1 ug of mouse anti-STRAP or rabbit anti-GSK-3β antibody or corresponding IgG (negative control); detection by western blotting
[2] = biological target: Myc-tagged GSK-3β (UniProt P49841); assay: co-IP; 293T cells transfected with β-catenin-HA, GSK-3β-myc and different doses of STRAP-Flag plasmids; harvested after 48 h; lysates immunoprecipitated with c-myc antibody, bound β-catenin detected by western blotting with anti-HA antibody

- binding [1]: binds
B1: Serine-Threonine Kinase Receptor-Associated Protein (STRAP), endogenous (protein, UniProt Q9Z1Z2 1-350)
chain: MAMRQTPLTCSGHTRPVVDLAFSGITPYGYFLISACKDGKPMLRQGDTGDWIGTFLGHKGAVWGATLNKDATKAATAAADFTAKVWDAVSGDELMTLAHKHIVKTVDFTQDSNYLLTGGQDKLLRIYDLNKPEAEPKEISGHTSGIKKALWCSDDKQILSADDKTVRLWDHATMTEVKSLNFNMSVSSMEYIPEGEILVITYGRSIAFHSAVSLEPIKSFEAPATINSASLHPEKEFLVAGGEDFKLYKYDYNSGEELESYKGHFGPIHCVRFSPDGELYASGSEDGTLRLWQTVVGKTYGLWKCVLPEEDSGELAKPKIGFPETAEEELEEIASENSDSIYSSTPEVKA

- binding [2]: binds
B2: Flag-tagged STRAP (protein, UniProt Q9Z1Z2 1-350)
chain: B1 chain
